Test results from ChEMBL document CHEMBL2216752, “Carnitine palmitoyltransferase (CPT) modulators: a medicinal chemistry perspective on 35 years of research” (J Med Chem, 2011).
pIC50: −log10 of the molar value.

What was measured:
[1] = Inhibition of human FAO
[2] = Inhibition of rat FAO

## CCCCc1oc2ccccc2c1C(=O)c1cc(I)c(OCCN(CC)CC)c(I)c1 [AMIODARONE]
[1]
  pIC50: 4.55
[2]
  pIC50: < 4.00
